From PubChem BioAssay AID1671190 (National Center for Advancing Translational Sciences (NCATS), 2021)
Hit rate of the full screen: of about 580,000 compounds, about 6,100 (1.1%) were called active. About 15% were inconclusive and are not listed. The call rests on the fitted dose curve; in most records, active means well fitted inhibition curve with a large enough effect; inconclusive means small, poorly fitted or top-dose-only effect, or another doubt; inactive means no such curve, though single readings can be large or run the other way. The list shows a part of the results, in another mix than the full data. The source gives no active or inactive call for entries shown without one.

Sequences of proteins named here, by UniProt entry; tags and fusion partners are left off. A change or cut given only in a name is not applied to a line headed by its entry.
UniProt P18054: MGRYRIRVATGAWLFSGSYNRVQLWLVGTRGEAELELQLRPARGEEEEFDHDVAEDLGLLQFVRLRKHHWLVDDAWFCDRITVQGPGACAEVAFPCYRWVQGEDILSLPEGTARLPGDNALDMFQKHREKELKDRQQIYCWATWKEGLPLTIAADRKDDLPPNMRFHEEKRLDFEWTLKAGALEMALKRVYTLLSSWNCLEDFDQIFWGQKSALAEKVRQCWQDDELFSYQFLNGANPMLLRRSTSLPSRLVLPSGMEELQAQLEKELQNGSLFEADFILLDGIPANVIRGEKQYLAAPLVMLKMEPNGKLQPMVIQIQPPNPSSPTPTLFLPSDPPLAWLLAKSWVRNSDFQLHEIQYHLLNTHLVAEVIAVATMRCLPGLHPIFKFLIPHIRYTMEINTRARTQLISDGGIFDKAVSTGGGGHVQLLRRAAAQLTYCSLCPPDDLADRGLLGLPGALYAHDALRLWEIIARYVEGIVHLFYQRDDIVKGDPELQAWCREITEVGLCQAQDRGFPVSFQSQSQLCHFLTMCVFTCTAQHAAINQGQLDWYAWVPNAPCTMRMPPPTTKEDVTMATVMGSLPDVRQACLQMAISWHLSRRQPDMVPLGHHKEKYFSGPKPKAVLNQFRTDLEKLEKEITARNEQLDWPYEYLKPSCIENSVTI

What follows are compounds tested against Polyunsaturated fatty acid lipoxygenase ALOX12 (Homo sapiens) (UniProt P18054) (assay: Primary qHTS assay for inhibitors of human arachidonate 12S-lipoxygenase (ALOX12): Round 2). Settings: purified 12hLO, xylenol orange hydroperoxide absorbance; activity change, negative = inhibition: at 0.00344 µM (top of the series) unless noted.
Description: Assay Provider: Theodore R. Holman Ph.D. University of California, Santa Cruz, California Human lipoxygenase 12hLO is a member of the closely related lipoxygenase family of enzymes which catalyze the site-specific oxidation of arachidonic acid to various hormone precursor molecules and as such is a candidate for drug development in a variety of disease areas, such as cancer and inflammation. Inhibition of 12hLO activity was screened by utilizing arachidonic acid as a substrate. The extent of hydroperoxide product formation was measured by a secondary chromogenic reaction in which xylenol orange (XO, Sigma-Aldrich, cat. number 39,818-7) reacts with the ferric ions produced from the reaction between the hydroperoxide and ferrous ions. The Fe (III)-XO complex is characterized with red-shifted absorbance at 560 nm. A purified preparation of human 12hLO was supplied by Dr. Holman laboratory, University of California, Santa Cruz.
PROTOCOL TABLE SEQUENCE No. (e.g., 1, 2, 3, etc.); […] (e.g., Cells, Incubation, Reagent, etc.); VALUE; DESCRIPTION 1; Enzyme; 3 uL; 150 nM 12hLO enzyme solution dispensed in 1536-well Greiner black, clear bottom plates. 2; Compound; 23 nL; compounds and controls were added. 3; Incubate; 15 min; room temperature. 4; Substrate; 1 uL; 40 uM arachidonic acid (final concentration). 5; Incubate; 30 min; room temperature. 6; Reagent; 4 uL; Fe-XO solution was added to each well. 7; Incubation; 30 min; room temperature 8; Detector; absorbance; Read 1 at 405 nm absorbance using ViewLux (Perkin-Elmer) CCD imager. 9; Detector; absorbance; Read 2 at 573 nm absorbance using ViewLux (Perkin-Elmer) CCD imager. NOTES (numbers refer to sequence above) 1; 150 nM 12hLO (final concentration) in buffer solution (25 mM Hepes, 0.01% Triton X-100, pH 7.0) was dispensed in columns 1, 2, 5-48. Column 1 is neutral (100% activity). Buffer only was dispensed in columns 3 and 4 as no enzyme negative controls. The plates were covered with metal lids with gas-exchange holes. 2; Compounds were pin transferred via a Kalypsys Pin Tool (Wako USA) in column 5-48. Control compound was transferred in column 2, titration of nordihydroguaiaretic acid (NDGA, Sigma-Aldrich, N5023) with top concentration of 20 mM in DMSO then 1:3 dilution in duplicate. Dilution factor of 23 nL into 4 uL final assay volume. 3; Covered assay plates were incubated for 15 min at room temperature. 4; Substrate was added to start the reaction; 40 uM arachidonic acid (Sigma-Aldrich, St. Louis, MO) was dispensed throughout the plate. 6; Chromogenic detection reagent solution (divalent iron/xylenol orange, Fe-XO) was added to each well: 200 uM xylenol orange, 300 uM ferrous ammonium sulfate prepared freshly in 50 mM sulfuric acid. 8, 9; Two absorbance readouts were obtained at 405 nm and at 573 nm using a ViewLux high-throughput CCD plate imager (Perkin-Elmer). The 573 to 405 (Read 2 / Read 1) absorbance ratio was used to compute reaction progress.
On the % scale 0 is the no-effect control and ±100 the full control effect; potency means the concentration at half of the fitted maximal effect.

Structure (SMILES) | activity change, negative = inhibition | Potency
O=P1(N(CCCl)CCCl)NCCCO1 (stereo not given) | -14.4% | –
CC(C)(C)CC(C)(C)c1ccc(O)cc1 | 4.72% | –
NC(=O)CS(=O)C(c1ccccc1)c1ccccc1 (stereo not given) | 49.5% | –
C#C[C@H]1CN2CC[C@H]1C[C@@H]2COC(=O)NCCC | – | active: 8.91 µM
O=C(NC(O)C(Cl)(Cl)Cl)NC(O)C(Cl)(Cl)Cl (stereo not given) | -2.83% | –
CC(=O)NC1CCSC1=O (stereo not given) | -12.8% | –
CCN(CC)CCN1C(=O)CN=C(c2ccccc2F)c2cc(Cl)ccc21 | 20.1% | –
C[C@]12C/C(=C/O)C(=O)C[C@@H]1CC[C@@H]1[C@@H]2CC[C@@]2(C)[C@H]1CC[C@]2(C)O | 11% | –
CCC(=O)O[C@@H]1C=C2CCC3C(CCC4(C)C3CC[C@@H]4OC(=O)CC)C2CC1 (stereo not given in full) | -22.5% | –
CCOP(=S)(OCC)Oc1ccc2c(C)c(Cl)c(=O)oc2c1 | 1.66% | –
CCOC(=O)C(c1c(O)c2ccccc2oc1=O)c1c(O)c2ccccc2oc1=O | 25.7% | –
NN=C(N)N | 7.07% | –
Fc1cc(Br)ccc1CBr | -17.1% | –
Clc1ccc(C(c2ccc(Cl)cc2)C(Cl)(Cl)Cl)cc1 | -9.09% | –
COc1cc(N)c(Cl)cc1C(=O)NC1CN2CCC1CC2 (stereo not given) | 22% | –
C[C@]12CCC(=O)C=C1CC[C@@H]1[C@@H]2CC[C@]2(C)C(=O)CC[C@@H]12 | 4.24% | –
NC(=O)OCCCc1ccccc1 | 12% | –
O=C(CBr)Nc1ccc(Cl)cc1C(=O)c1ccccc1F | -43.2% | –
CCN(Cc1ccc(Cl)nc1)/C(=C/[N+](=O)[O-])NC | -1.49% | –
CN1CC[C@]23c4c5ccc(O)c4O[C@H]2[C@@H](O)CC[C@H]3[C@H]1C5 | 20.6% [at 0.00599 µM] | –
CCC(=O)O[C@H]1CC[C@H]2[C@@H]3CCC4=CC(=O)CC[C@]4(C)[C@H]3CC[C@]12C | 27.2% | –
CO[C@]12CC[C@@]3(C[C@@H]1[C@](C)(O)C(C)(C)C)[C@@H]1Cc4ccc(O)c5c4[C@@]3(CCN1CC1CC1)[C@H]2O5 | -14.8% [at 0.00599 µM] | –
C[C@@H]1CN(C2CCC(C#N)(c3ccc(F)cc3)CC2)CC[C@]1(C(=O)O)c1ccccc1 (stereo not given in full) | 8.36% | –
C[C@]12CC[C@H]3[C@@H](CCC4=CC(=O)CC[C@@H]43)[C@@H]1CC[C@@H]2OC(=O)CCC1CCCCC1 | 1.41% | –
CCc1cc2c(s1)-n1c(C)nnc1CN=C2c1ccccc1Cl | -6.46% | –
CC1OC(C)OC(C)O1 (stereo not given) | 13.5% | –
COP(=S)(OC)Oc1cc(Cl)c(Cl)cc1Cl | 48.4% | –
CCCCCCCCC(=O)NCc1ccc(O)c(OC)c1 | -13% | –
O=C(O)c1ccc(=O)[nH]c1 | -23% | –
C=CCC1([C@H](C)CCC)C(=O)NC(=O)NC1=O | 23.8% [at 0.00599 µM] | –

Sorted by SMILES length (descending): some entries from above
Structure (SMILES) | activity change, negative = inhibition | Potency
CCN(CC)CCN1C(=O)CN=C(c2ccccc2F)c2cc(Cl)ccc21 | 20.1% | –
O=C(O)c1ccc(=O)[nH]c1 | -23% | –
NN=C(N)N | 7.07% | –
